Laboratory results: article PMC4045235

Amino acid sequences for entries named in this document (tags omitted).
UniProt Q14999: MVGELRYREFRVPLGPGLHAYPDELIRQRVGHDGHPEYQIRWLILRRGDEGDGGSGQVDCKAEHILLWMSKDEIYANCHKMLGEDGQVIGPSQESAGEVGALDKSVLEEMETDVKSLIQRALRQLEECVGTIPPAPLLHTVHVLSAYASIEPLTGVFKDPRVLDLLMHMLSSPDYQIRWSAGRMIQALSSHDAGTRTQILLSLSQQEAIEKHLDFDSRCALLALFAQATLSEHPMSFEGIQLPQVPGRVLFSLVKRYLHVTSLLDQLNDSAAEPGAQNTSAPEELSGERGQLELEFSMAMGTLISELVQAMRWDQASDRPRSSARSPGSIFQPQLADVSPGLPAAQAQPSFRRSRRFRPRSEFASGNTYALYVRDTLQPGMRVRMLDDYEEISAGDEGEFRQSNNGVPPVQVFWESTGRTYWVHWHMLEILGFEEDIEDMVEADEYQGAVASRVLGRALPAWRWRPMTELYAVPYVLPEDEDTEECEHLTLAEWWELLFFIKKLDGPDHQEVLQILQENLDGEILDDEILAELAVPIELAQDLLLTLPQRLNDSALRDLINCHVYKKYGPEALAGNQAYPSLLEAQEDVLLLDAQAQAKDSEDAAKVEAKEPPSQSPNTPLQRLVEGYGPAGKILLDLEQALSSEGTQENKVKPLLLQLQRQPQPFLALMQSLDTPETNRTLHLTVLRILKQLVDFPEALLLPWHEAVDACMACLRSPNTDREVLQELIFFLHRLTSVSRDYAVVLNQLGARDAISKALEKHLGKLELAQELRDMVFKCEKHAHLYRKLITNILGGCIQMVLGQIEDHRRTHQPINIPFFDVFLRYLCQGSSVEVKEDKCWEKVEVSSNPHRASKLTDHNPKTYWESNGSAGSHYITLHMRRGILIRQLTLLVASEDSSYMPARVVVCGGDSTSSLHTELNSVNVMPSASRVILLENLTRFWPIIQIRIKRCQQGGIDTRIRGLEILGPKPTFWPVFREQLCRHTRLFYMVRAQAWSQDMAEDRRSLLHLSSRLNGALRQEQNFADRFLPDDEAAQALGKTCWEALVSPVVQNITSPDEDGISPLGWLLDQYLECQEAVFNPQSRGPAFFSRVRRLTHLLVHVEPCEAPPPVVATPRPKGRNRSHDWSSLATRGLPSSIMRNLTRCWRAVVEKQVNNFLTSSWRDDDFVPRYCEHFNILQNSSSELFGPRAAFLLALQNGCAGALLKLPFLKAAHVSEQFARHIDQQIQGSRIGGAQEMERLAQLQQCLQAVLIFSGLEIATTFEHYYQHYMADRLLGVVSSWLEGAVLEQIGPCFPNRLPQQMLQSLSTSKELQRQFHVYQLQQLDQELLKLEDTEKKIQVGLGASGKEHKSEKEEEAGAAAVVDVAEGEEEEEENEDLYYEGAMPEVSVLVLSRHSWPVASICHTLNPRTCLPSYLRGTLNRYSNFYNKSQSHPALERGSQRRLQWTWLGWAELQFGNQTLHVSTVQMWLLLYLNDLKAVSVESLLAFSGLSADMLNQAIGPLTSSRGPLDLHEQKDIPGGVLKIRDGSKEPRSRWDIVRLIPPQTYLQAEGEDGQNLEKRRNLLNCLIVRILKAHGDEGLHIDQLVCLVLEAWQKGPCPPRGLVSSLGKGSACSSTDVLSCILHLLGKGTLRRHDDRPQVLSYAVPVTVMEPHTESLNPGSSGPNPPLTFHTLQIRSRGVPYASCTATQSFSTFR
UniProt O75147: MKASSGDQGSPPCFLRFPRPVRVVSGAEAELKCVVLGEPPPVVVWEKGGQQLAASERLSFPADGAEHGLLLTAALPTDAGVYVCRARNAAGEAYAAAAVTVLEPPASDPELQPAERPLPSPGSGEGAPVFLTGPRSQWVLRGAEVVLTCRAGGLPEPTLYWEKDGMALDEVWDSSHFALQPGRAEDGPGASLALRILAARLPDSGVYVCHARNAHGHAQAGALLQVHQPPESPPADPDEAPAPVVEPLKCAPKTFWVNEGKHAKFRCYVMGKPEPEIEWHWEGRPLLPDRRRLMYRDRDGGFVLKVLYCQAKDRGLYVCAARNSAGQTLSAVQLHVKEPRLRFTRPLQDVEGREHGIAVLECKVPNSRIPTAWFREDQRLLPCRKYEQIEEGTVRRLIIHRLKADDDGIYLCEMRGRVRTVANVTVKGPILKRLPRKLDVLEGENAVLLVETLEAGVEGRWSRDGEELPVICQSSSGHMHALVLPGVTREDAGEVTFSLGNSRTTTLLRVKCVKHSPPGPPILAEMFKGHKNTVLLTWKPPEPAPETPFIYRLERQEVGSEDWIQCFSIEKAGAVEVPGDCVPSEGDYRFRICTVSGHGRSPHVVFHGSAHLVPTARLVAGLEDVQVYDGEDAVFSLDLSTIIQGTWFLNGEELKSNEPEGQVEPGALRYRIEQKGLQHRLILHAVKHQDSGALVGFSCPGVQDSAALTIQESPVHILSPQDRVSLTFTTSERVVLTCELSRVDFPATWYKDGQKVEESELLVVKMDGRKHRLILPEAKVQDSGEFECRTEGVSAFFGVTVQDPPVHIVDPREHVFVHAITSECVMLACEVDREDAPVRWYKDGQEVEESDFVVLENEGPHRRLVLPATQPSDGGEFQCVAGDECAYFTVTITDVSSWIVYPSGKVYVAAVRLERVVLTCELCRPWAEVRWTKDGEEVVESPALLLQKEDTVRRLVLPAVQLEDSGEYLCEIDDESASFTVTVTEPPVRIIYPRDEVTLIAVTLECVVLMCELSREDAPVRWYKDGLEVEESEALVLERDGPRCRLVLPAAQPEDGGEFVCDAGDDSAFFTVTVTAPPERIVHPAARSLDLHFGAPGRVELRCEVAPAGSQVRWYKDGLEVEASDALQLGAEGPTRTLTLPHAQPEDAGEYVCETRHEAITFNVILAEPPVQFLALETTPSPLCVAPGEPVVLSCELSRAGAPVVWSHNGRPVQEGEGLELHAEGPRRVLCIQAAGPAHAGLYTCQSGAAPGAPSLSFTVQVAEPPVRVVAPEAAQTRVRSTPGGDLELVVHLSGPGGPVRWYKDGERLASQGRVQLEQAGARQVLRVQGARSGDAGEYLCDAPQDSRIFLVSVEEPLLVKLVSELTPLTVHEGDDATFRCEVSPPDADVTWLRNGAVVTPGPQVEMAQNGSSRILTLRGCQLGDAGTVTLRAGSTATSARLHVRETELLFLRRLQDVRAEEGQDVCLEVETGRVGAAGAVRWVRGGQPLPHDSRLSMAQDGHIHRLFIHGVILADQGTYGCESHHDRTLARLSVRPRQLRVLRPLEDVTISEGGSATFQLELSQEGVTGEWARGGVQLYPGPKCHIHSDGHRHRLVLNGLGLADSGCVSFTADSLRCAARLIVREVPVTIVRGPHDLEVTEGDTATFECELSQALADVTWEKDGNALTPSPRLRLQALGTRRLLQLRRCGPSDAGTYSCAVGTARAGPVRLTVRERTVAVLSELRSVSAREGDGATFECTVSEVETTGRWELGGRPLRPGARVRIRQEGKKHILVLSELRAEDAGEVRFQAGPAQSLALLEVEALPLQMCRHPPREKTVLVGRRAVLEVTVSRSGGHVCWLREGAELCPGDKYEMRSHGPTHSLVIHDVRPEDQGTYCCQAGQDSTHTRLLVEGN

T1: CCDC8 (UniProt Q9H0W5)
T1 sequence: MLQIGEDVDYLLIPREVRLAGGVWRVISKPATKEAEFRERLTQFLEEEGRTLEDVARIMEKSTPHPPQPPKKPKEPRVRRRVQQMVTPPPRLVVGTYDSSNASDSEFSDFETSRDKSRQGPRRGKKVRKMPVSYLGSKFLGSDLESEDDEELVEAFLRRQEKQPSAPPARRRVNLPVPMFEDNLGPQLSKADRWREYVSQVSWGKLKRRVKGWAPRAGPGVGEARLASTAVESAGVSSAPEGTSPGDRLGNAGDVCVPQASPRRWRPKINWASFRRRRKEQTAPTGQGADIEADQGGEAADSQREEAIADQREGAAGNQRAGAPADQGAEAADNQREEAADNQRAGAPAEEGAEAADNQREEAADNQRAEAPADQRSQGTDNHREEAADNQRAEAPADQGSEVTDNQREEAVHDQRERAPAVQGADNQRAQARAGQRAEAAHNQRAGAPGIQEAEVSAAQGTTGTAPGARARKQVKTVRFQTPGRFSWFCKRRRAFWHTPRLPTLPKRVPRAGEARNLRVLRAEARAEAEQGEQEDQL

B1: SMC1A (protein, UniProt Q14683 1-1233)
chain: MGFLKLIEIENFKSYKGRQIIGPFQRFTAIIGPNGSGKSNLMDAISFVLGEKTSNLRVKTLRDLIHGAPVGKPAANRAFVSMVYSEEGAEDRTFARVIVGGSSEYKINNKVVQLHEYSEELEKLGILIKARNFLVFQGAVESIAMKNPKERTALFEEISRSGELAQEYDKRKKEMVKAEEDTQFNYHRKKNIAAERKEAKQEKEEADRYQRLKDEVVRAQVQLQLFKLYHNEVEIEKLNKELASKNKEIEKDKKRMDKVEDELKEKKKELGKMMREQQQIEKEIKEKDSELNQKRPQYIKAKENTSHKIKKLEAAKKSLQNAQKHYKKRKGDMDELEKEMLSVEKARQEFEERMEEESQSQGRDLTLEENQVKKYHRLKEEASKRAATLAQELEKFNRDQKADQDRLDLEERKKVETEAKIKQKLREIEENQKRIEKLEEYITTSKQSLEEQKKLEGELTEEVEMAKRRIDEINKELNQVMEQLGDARIDRQESSRQQRKAEIMESIKRLYPGSVYGRLIDLCQPTQKKYQIAVTKVLGKNMDAIIVDSEKTGRDCIQYIKEQRGEPETFLPLDYLEVKPTDEKLRELKGAKLVIDVIRYEPPHIKKALQYACGNALVCDNVEDARRIAFGGHQRHKTVALDGTLFQKSGVISGGASDLKAKARRWDEKAVDKLKEKKERLTEELKEQMKAKRKEAELRQVQSQAHGLQMRLKYSQSDLEQTKTRHLALNLQEKSKLESELANFGPRINDIKRIIQSREREMKDLKEKMNQVEDEVFEEFCREIGVRNIREFEEEKVKRQNEIAKKRLEFENQKTRLGIQLDFEKNQLKEDQDKVHMWEQTVKKDENEIEKLKKEEQRHMKIIDETMAQLQDLKNQHLAKKSEVNDKNHEMEEIRKKLGGANKEMTHLQKEVTAIETKLEQKRSDRHNLLQACKMQDIKLPLSKGTMDDISQEEGSSQGEDSVSGSQRISSIYAREALIEIDYGDLCEDLKDAQAEEEIKQEMNTLQQKLNEQQSVLQRIAAPNMKAMEKLESVRDKFQETSDEFEAARKRAKKAKQAFEQIKKERFDRFNACFESVATNIDEIYKALSRNSSAQAFLGPENPEEPYLDGINYNCVAPGKRFRPMDNLSGGEKTVAALALLFAIHSYKPAPFFVLDEIDAALDNTNIGKVANYIKEQSTCNFQAIVISLKEEFYTKAESLIGVYPEQGDCVISKVLTFDLTKYPDANPNPNEQ
B2: KHSRP (protein, UniProt Q92945 1-711)
chain: MSDYSTGGPPPGPPPPAGGGGGAGGAGGGPPPGPPGAGDRGGGGPGGGGPGGGSAGGPSQPPGGGGPGIRKDAFADAVQRARQIAAKIGGDAATTVNNSTPDFGFGGQKRQLEDGDQPESKKLASQGDSISSQLGPIHPPPRTSMTEEYRVPDGMVGLIIGRGGEQINKIQQDSGCKVQISPDSGGLPERSVSLTGAPESVQKAKMMLDDIVSRGRGGPPGQFHDNANGGQNGTVQEIMIPAGKAGLVIGKGGETIKQLQERAGVKMILIQDGSQNTNVDKPLRIIGDPYKVQQACEMVMDILRERDQGGFGDRNEYGSRIGGGIDVPVPRHSVGVVIGRSGEMIKKIQNDAGVRIQFKQDDGTGPEKIAHIMGPPDRCEHAARIINDLLQSLRSGPPGPPGGPGMPPGGRGRGRGQGNWGPPGGEMTFSIPTHKCGLVIGRGGENVKAINQQTGAFVEISRQLPPNGDPNFKLFIIRGSPQQIDHAKQLIEEKIEGPLCPVGPGPGGPGPAGPMGPFNPGPFNQGPPGAPPHAGGPPPHQYPPQGWGNTYPQWQPPAPHDPSKAAAAAADPNAAWAAYYSHYYQQPPGPVPGPAPAPAAPPAQGEPPQPPPTGQSDYTKAWEEYYKKIGQQPQQPGAPPQQDYTKAWEEYYKKQAQVATGGGPGAPPGSQPDYSAAWAEYYRQQAAYYGQTPGPGGPQPPPTQQGQQQAQ
B3: HNRNPA0 (protein, UniProt Q13151 1-305)
chain: MENSQLCKLFIGGLNVQTSESGLRGHFEAFGTLTDCVVVVNPQTKRSRCFGFVTYSNVEEADAAMAASPHAVDGNTVELKRAVSREDSARPGAHAKVKKLFVGGLKGDVAEGDLIEHFSQFGTVEKAEIIADKQSGKKRGFGFVYFQNHDAADKAAVVKFHPIQGHRVEVKKAVPKEDIYSGGGGGGSRSSRGGRGGRGRGGGRDQNGLSKGGGGGYNSYGGYGGGGGGGYNAYGGGGGGSSYGGSDYGNGFGGFGSYSQHQSSYGPMKSGGGGGGGGSSWGGRSNSGPYRGGYGGGGGYGGSSF
B4: CCT2 (protein, UniProt P78371 1-535)
chain: MASLSLAPVNIFKAGADEERAETARLTSFIGAIAIGDLVKSTLGPKGMDKILLSSGRDASLMVTNDGATILKNIGVDNPAAKVLVDMSRVQDDEVGDGTTSVTVLAAELLREAESLIAKKIHPQTIIAGWREATKAAREALLSSAVDHGSDEVKFRQDLMNIAGTTLSSKLLTHHKDHFTKLAVEAVLRLKGSGNLEAIHIIKKLGGSLADSYLDEGFLLDKKIGVNQPKRIENAKILIANTGMDTDKIKIFGSRVRVDSTAKVAEIEHAEKEKMKEKVERILKHGINCFINRQLIYNYPEQLFGAAGVMAIEHADFAGVERLALVTGGEIASTFDHPELVKLGSCKLIEEVMIGEDKLIHFSGVALGEACTIVLRGATQQILDEAERSLHDALCVLAQTVKDSRTVYGGGCSEMLMAHAVTQLANRTPGKEAVAMESYAKALRMLPTIIADNAGYDSADLVAQLRAAHSEGNTTAGLDMREGTIGDMAILGITESFQVKRQVLLSAAEAAEVILRVDNIIKAAPRKRVPDHHPC
B5: PDIA6 (protein, UniProt Q15084 20-440)
chain: LYSSSDDVIELTPSNFNREVIQSDSLWLVEFYAPWCGHCQRLTPEWKKAATALKDVVKVGAVDADKHHSLGGQYGVQGFPTIKIFGSNKNRPEDYQGGRTGEAIVDAALSALRQLVKDRLGGRSGGYSSGKQGRSDSSSKKDVIELTDDSFDKNVLDSEDVWMVEFYAPWCGHCKNLEPEWAAAASEVKEQTKGKVKLAAVDATVNQVLASRYGIRGFPTIKIFQKGESPVDYDGGRTRSDIVSRALDLFSDNAPPPELLEIINEDIAKRTCEEHQLCVVAVLPHILDTGAAGRNSYLEVLLKLADKYKKKMWGWLWTEAGAQSELETALGIGGFGYPAMAAINARKMKFALLKGSFSEQGINEFLRELSFGRGSTAPVGGGAFPTIVEREPWDGRDGELPVEDDIDLSDVELDDLGKDEL
B6: YWHAQ (protein, UniProt P27348 1-245)
chain: MEKTELIQKAKLAEQAERYDDMATCMKAVTEQGAELSNEERNLLSVAYKNVVGGRRSAWRVISSIEQKTDTSDKKLQLIKDYREKVESELRSICTTVLELLDKYLIANATNPESKVFYLKMKGDYFRYLAEVACGDDRKQTIDNSQGAYQEAFDISKKEMQPTHPIRLGLALNFSVFYYEILNNPELACTLAKTAFDEAIAELDTLNEDSYKDSTLIMQLLRDNLTLWTSDSAGEECDAAEGAEN
B7: JUP (protein, UniProt P14923 1-745)
chain: MEVMNLMEQPIKVTEWQQTYTYDSGIHSGANTCVPSVSSKGIMEEDEACGRQYTLKKTTTYTQGVPPSQGDLEYQMSTTARAKRVREAMCPGVSGEDSSLLLATQVEGQATNLQRLAEPSQLLKSAIVHLINYQDDAELATRALPELTKLLNDEDPVVVTKAAMIVNQLSKKEASRRALMGSPQLVAAVVRTMQNTSDLDTARCTTSILHNLSHHREGLLAIFKSGGIPALVRMLSSPVESVLFYAITTLHNLLLYQEGAKMAVRLADGLQKMVPLLNKNNPKFLAITTDCLQLLAYGNQESKLIILANGGPQALVQIMRNYSYEKLLWTTSRVLKVLSVCPSNKPAIVEAGGMQALGKHLTSNSPRLVQNCLWTLRNLSDVATKQEGLESVLKILVNQLSVDDVNVLTCATGTLSNLTCNNSKNKTLVTQNSGVEALIHAILRAGDKDDITEPAVCALRHLTSRHPEAEMAQNSVRLNYGIPAIVKLLNQPNQWPLVKATIGLIRNLALCPANHAPLQEAAVIPRLVQLLVKAHQDAQRHVAAGTQQPYTDGVRMEEIVEGCTGALHILARDPMNRMEIFRLNTIPLFVQLLYSSVENIQRVAAGVLCELAQDKEAADAIDAEGASAPLMELLHSRNEGTATYAAAVLFRISEDKNPDYRKRVSVELTNSLFKHDPAAWEAAQSMIPINEPYGDDMDATYRPMYSSDVPLDPLEMHMDMDGDYPIDTYSDGLRPPYPTADHMLA

Each binder was assayed against T1, CCDC8 (assay: affinity purification with mass spectrometry; lysates of HEK293 cells transfected with CUL7, V5-OBSL1 or CCDC8, 24 h post-transfection; IP with CUL7, V5 or CCDC8 antibody on protein G Dynabeads; SDS-PAGE, GeLC-MS/MS; proteins found in no antibody control IPs removed; only proteins present in all three IPs kept).

binding, binds:
B1
B2
B3
B4
B5
B6
B7

The binders below were run against CUL7 (UniProt Q14999) in the same assay as above.

binding, binds:
B1
B2
B3
B4
B5
B6
B7

The binders below were run against V5-OBSL1 (UniProt O75147) in the same assay as above.

binding, binds:
B1
B2
B3
B4
B5
B6
B7

These are yes or no findings as the source states them, for the method shown. In cells and extracts the contact can be indirect. A yes stands for co-enrichment or nearness to the bait. Other partners may have been found.
